# PubChem BioAssay AID652272 – Drosophila RNAi Screening Center, 2013
# Purpose: 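Genome-wide knock-down search for components of Hedgehog signalling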 (primary screen)
# System: Drosophila clone 8 (Cl8) cells
# Reagents: long dsRNA against Drosophila genes
# Read-out: 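Plate reader light from a firefly reporter under a ptc promoter fragment that responds to Hedgehog, with Renilla light as transfection reference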
# Direction: firefly Hh reporter signal: higher = more ptc reporter light; Renilla reference signal: higher = more Renilla control light
# Call rule: 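Called a hit if the two-replicate mean z-score lies below -2 or above +3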
# Calls: active = hit: reporter lowered or raised; inactive = not a hit
# The deposit covers about 21,000 reagents; this is a random part of those that have a named target and a result. In the full data, 503 (2.4%) were called active. 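Raw plate light values, not normalised; calls rest on replicate z-scores that were not deposited; hits include reporter decreases as well as increases.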 A plus sign joins genes that one reagent is predicted to hit. Reagent sequences are not shown. Not stated in the record: the amount of reagent, the time to read-out.
gene knocked down,amplicon,"firefly Hh reporter signal, replicate 1","firefly Hh reporter signal, replicate 2","firefly Hh reporter signal, replicate 3","Renilla reference signal, replicate 1","Renilla reference signal, replicate 2",call
CG18745,DRSC15382,55093,93787,,1824,3155,inactive
Flad1,DRSC19898,1.01e5,66362,,2266,1632,inactive
I-t,DRSC16713,74000,91829,,2389,2656,inactive
Amy-d + Amy-p,DRSC21242,1.12e5,2.58e5,,4589,9700,inactive
CG14234,DRSC19317,5.36e5,2.14e5,,31762,5341,inactive
CG14234,DRSC19589,57269,2.41e5,,1014,9752,inactive
fwd,DRSC08580,51592,46880,,3095,2372,inactive
CG3690,DRSC18170,1.13e5,3.05e5,,3014,11914,inactive
CG3690,DRSC18641,79922,2.33e5,,2483,8888,inactive
AdoR,DRSC16556,47216,35296,,2507,624,inactive
CG33307,DRSC01349,5.37e5,1.60e5,,27099,7661,inactive
CG7987,DRSC16357,91051,1.43e5,,3715,5123,inactive
CG8300,DRSC18426,77504,48618,,2157,1292,inactive
dao,DRSC01960,1.14e5,67437,,3332,6375,inactive
CG17207,DRSC15198,71801,1.31e5,,2325,6867,inactive
Dhc16F,DRSC20242,92080,2.61e5,,2289,10658,inactive
Jhe,DRSC07174,59446,40773,,1858,2924,inactive
CG7387,DRSC10833,1.06e5,56048,,4003,2260,inactive
Hesr,DRSC19965,90416,2.19e5,,3009,9184,inactive
Ms,DRSC16041,1.45e5,97660,,5773,3953,inactive
CG44838,DRSC10330,50066,16133,,2918,947,inactive
CG44838,DRSC10371,67172,42378,,2786,1648,inactive
GluRIB,DRSC10258,33097,73035,98295,4742,6609,inactive
GluRIB,DRSC11177,20593,46816,71570,3776,4532,inactive
CG43366,DRSC04857,1.01e5,74416,,2358,7922,inactive
CG43366,DRSC04864,78853,65398,,2083,6064,inactive
dnr1,DRSC03948,1.37e5,4.31e5,,10488,17510,inactive
dnr1,DRSC04122,74432,47830,,1540,5025,inactive
CG31064,DRSC14756,89933,1.19e5,,3040,3763,inactive
CG31064,DRSC15941,86281,96528,,2864,2582,inactive
CG31064,DRSC15942,66678,94000,,2153,2395,inactive
CG31064,DRSC15943,60008,64284,,2321,2166,inactive
CG10013,DRSC14175,1.23e5,72593,,4864,2768,inactive
OtopLc,DRSC18082,67607,2.19e5,,2304,8187,inactive
OtopLc,DRSC18083,52448,1.84e5,,1777,7757,inactive
OtopLc,DRSC18132,64266,1.56e5,,1991,6339,inactive
CG7789,DRSC16312,94471,81860,,2146,2048,inactive
Ankrd49,DRSC01894,78262,66329,,2370,5981,inactive
Ahcy,DRSC19329,84044,82172,,2407,2301,inactive
CG18404,DRSC15323,84080,1.14e5,,2450,3111,inactive
CG32638,DRSC18968,4.88e5,1.58e5,,25344,3978,inactive
Tbp,DRSC04662,84482,37746,,2141,3108,inactive

Limited to “firefly Hh reporter signal, replicate 2” (6 entries from above):
Jhe [DRSC07174]: 40773
CG7387 [DRSC10833]: 56048
Hesr [DRSC19965]: 2.19e5
Ms [DRSC16041]: 97660
CG44838 [DRSC10330]: 16133
CG44838 [DRSC10371]: 42378

Next reagents:
gene knocked down,amplicon,"firefly Hh reporter signal, replicate 1","firefly Hh reporter signal, replicate 2","firefly Hh reporter signal, replicate 3","Renilla reference signal, replicate 1","Renilla reference signal, replicate 2",call
Drak,DRSC19778,73701,2.02e5,,3123,8625,inactive
exp,DRSC06313,50953,20484,,1160,1389,inactive
CG9672,DRSC20201,88375,1.06e5,,1782,2597,inactive
smog,DRSC00334,1.37e5,69650,,3735,7376,inactive
smog,DRSC00335,1.14e5,37715,,2898,3552,inactive
beta-Spec,DRSC20311,76842,2.54e5,,3075,9100,inactive
Alp7,DRSC04355,94535,49296,,1947,3016,inactive
CG6171,DRSC15982,1.25e5,64950,,5027,1559,inactive
Nach,DRSC07478,58946,32455,,2016,3133,inactive
Snr1,DRSC12369,1.09e5,95789,,4835,4186,inactive
Act42A,DRSC04835,57382,44721,,869,3860,inactive
meru,DRSC09400,2.06e5,,,5637,,inactive
meru,DRSC09899,63989,,,4675,2396,active
meru,DRSC10215,1.10e5,,,5600,3121,inactive
CG31817,DRSC01537,1.03e5,1.99e5,,2733,9864,inactive
CG31817,DRSC01538,5.14e5,1.86e5,91814,2772,5195,inactive
Orct,DRSC16777,1.01e5,91476,,4592,4133,inactive
CG4751,DRSC02776,47066,40352,,2711,1936,inactive
Elp2,DRSC06095,64691,39157,,2150,1232,inactive
CG40378 (retired record),DRSC20958,4.88e5,1.78e5,,31220,4261,inactive
Hsp60D,DRSC02543,89148,49835,,2538,4485,inactive
CG30340,DRSC05167,75013,1.94e5,,5383,8980,inactive
mtrm,DRSC10322,72316,29158,,3603,1228,inactive
CPT2,DRSC08553,1.86e5,95808,,6821,1315,inactive
NANS,DRSC15743,73857,1.42e5,,2020,7170,inactive
ReepA,DRSC04572,85146,65904,,3856,2572,inactive
CG8407,DRSC07167,1.24e5,42822,,2724,3964,inactive
CG16826,DRSC02527,97328,56529,,1987,5184,inactive
CG30054,DRSC05354,1.95e5,2.31e5,,4780,11081,inactive
subdued,DRSC15137,99346,62545,,4153,2692,inactive
EMC1,DRSC15455,1.18e5,1.17e5,,5180,4709,inactive
